Reference: article PMC5363571 (Oncotarget, 2016)
Where a name gives a salt, the structure may show the parent alone.

Amino acid sequences for entries named in this document (tags omitted).
UniProt Q93009, whole entry: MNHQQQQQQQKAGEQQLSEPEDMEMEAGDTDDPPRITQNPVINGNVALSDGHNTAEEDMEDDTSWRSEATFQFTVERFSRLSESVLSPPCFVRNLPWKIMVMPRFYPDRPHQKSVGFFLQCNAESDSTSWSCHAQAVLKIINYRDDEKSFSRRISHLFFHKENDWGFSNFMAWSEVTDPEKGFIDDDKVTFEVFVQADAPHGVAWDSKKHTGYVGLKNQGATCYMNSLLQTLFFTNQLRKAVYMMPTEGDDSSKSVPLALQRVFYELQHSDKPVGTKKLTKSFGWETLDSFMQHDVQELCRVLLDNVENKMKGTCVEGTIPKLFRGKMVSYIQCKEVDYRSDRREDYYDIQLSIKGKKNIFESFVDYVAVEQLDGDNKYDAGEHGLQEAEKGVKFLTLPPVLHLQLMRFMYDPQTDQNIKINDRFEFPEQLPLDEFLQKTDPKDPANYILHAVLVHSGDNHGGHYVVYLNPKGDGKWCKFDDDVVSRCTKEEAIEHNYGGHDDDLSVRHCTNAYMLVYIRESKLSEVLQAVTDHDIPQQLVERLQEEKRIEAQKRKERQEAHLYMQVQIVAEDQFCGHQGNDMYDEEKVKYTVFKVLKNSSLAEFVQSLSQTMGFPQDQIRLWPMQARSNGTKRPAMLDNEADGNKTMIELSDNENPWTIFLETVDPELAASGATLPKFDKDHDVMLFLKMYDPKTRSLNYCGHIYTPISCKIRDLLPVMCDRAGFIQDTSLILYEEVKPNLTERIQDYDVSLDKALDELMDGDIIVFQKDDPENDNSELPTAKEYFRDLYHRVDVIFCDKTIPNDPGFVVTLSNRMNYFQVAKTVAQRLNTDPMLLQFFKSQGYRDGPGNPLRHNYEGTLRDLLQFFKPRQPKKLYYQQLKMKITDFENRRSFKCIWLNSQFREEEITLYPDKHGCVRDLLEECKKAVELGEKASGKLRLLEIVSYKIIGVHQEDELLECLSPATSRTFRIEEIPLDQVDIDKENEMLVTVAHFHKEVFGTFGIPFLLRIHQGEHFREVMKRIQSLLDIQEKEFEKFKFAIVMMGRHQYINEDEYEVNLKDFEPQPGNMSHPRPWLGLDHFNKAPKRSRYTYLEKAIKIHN

Biological target: USP7 (Homo sapiens, UniProt Q93009)
Test: biochemical
Set-up: Ub-AMC hydrolysis by recombinant USP7 (20 nM), 30 min pre-incubation, fluorescence read-out
Details: read-out: % Inhibition at 50 μM

Structure (SMILES)	inhibition at 50 µM [%]
Clc1ccc2c(c1)CCc1cccnc1C2=C1CCNCC1 [Desloratadine]	< 5
Cc1ccccc1C(OCCN(C)C)c1ccccc1 (centres unmarked) [Orphenadrine citrate]	< 5
